{"source": "PubChem BioAssay AID1259308 (NCATS, 2017)", "test": "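Candidate targets for better recombinant protein yield in mammalian cells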 (primary screen)", "cells": "human HEK293 embryonic kidney cells stably expressing firefly luciferase (HEK-CMV-Luc2-Hygro)", "knock-down reagent": "single siRNA against human genes, 0.8 pmol siRNA per well", "timing": "72 h", "read-out": "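Luciferase light (ONE-Glo) measured on one replicate plate set and viability (CellTiter-Glo) on the other, scaled to a negative control siRNA, with robust z-scores and luciferase per cell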", "scale": "total luciferase, z-score: higher = more reporter protein produced", "call rule": "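Active when the median/MAD z-score for overall luciferase is greater than 3; a gene was taken forward for validation with new siRNAs if at least two of its three siRNAs passed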", "calls": "active = raised luciferase; inactive = no rise", "note": "The whole screen tested about 59,000 reagents; below is a part drawn at random. In the full data, about 1,510 (2.6%) are marked active. 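Calls use total luciferase alone and ignore viability, so some active siRNAs may act by altering cell number.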 Reagents against one gene are numbered here. Further read-outs or replicates are left out here."}
The first 2 records, ahead of the listing:
{"gene knocked down":"PKDCC (protein kinase domain containing, cytoplasmic)","reagent":1,"total luciferase, z-score":0.853,"outcome":"inactive"}
{"gene knocked down":"PKDCC (protein kinase domain containing, cytoplasmic)","reagent":2,"total luciferase, z-score":0.637,"outcome":"inactive"}

The list itself, from the start:
{"gene knocked down":"PKDCC (protein kinase domain containing, cytoplasmic)","reagent":1,"total luciferase, z-score":0.853,"outcome":"inactive"}
{"gene knocked down":"PKDCC (protein kinase domain containing, cytoplasmic)","reagent":2,"total luciferase, z-score":0.637,"outcome":"inactive"}
{"gene knocked down":"PKDCC (protein kinase domain containing, cytoplasmic)","reagent":3,"total luciferase, z-score":-0.07,"outcome":"inactive"}
{"gene knocked down":"ZNRD2 (zinc ribbon domain containing 2)","reagent":1,"total luciferase, z-score":-2.21,"outcome":"inactive"}
{"gene knocked down":"ZNRD2 (zinc ribbon domain containing 2)","reagent":2,"total luciferase, z-score":0.918,"outcome":"inactive"}
{"gene knocked down":"ZNRD2 (zinc ribbon domain containing 2)","reagent":3,"total luciferase, z-score":-0.198,"outcome":"inactive"}
{"gene knocked down":"PGAM1P4 (phosphoglycerate mutase 1 pseudogene 4)","reagent":1,"total luciferase, z-score":-0.668,"outcome":"inactive"}
{"gene knocked down":"PGAM1P4 (phosphoglycerate mutase 1 pseudogene 4)","reagent":2,"total luciferase, z-score":-0.128,"outcome":"inactive"}
{"gene knocked down":"PGAM1P4 (phosphoglycerate mutase 1 pseudogene 4)","reagent":3,"total luciferase, z-score":2.02,"outcome":"inactive"}
{"gene knocked down":"BIN2 (bridging integrator 2)","reagent":1,"total luciferase, z-score":-0.398,"outcome":"inactive"}
{"gene knocked down":"BIN2 (bridging integrator 2)","reagent":2,"total luciferase, z-score":3.05,"outcome":"active"}
{"gene knocked down":"BIN2 (bridging integrator 2)","reagent":3,"total luciferase, z-score":0.372,"outcome":"inactive"}
{"gene knocked down":"ERAP1 (endoplasmic reticulum aminopeptidase 1)","reagent":1,"total luciferase, z-score":-0.196,"outcome":"inactive"}
{"gene knocked down":"ERAP1 (endoplasmic reticulum aminopeptidase 1)","reagent":2,"total luciferase, z-score":0.296,"outcome":"inactive"}
{"gene knocked down":"ERAP1 (endoplasmic reticulum aminopeptidase 1)","reagent":3,"total luciferase, z-score":-1.28,"outcome":"inactive"}
{"gene knocked down":"RAB18 (RAB18, member RAS oncogene family)","reagent":1,"total luciferase, z-score":-0.234,"outcome":"inactive"}
{"gene knocked down":"RAB18 (RAB18, member RAS oncogene family)","reagent":2,"total luciferase, z-score":-0.0609,"outcome":"inactive"}
{"gene knocked down":"RAB18 (RAB18, member RAS oncogene family)","reagent":3,"total luciferase, z-score":-0.544,"outcome":"inactive"}
{"gene knocked down":"MRPL58 (mitochondrial ribosomal protein L58)","reagent":1,"total luciferase, z-score":-0.437,"outcome":"inactive"}
{"gene knocked down":"MRPL58 (mitochondrial ribosomal protein L58)","reagent":2,"total luciferase, z-score":-0.0203,"outcome":"inactive"}
{"gene knocked down":"MRPL58 (mitochondrial ribosomal protein L58)","reagent":3,"total luciferase, z-score":-0.064,"outcome":"inactive"}
{"gene knocked down":"AUTS2 (activator of transcription and developmental regulator AUTS2)","reagent":1,"total luciferase, z-score":1.25,"outcome":"inactive"}
{"gene knocked down":"AUTS2 (activator of transcription and developmental regulator AUTS2)","reagent":2,"total luciferase, z-score":-0.743,"outcome":"inactive"}
{"gene knocked down":"AUTS2 (activator of transcription and developmental regulator AUTS2)","reagent":3,"total luciferase, z-score":0.383,"outcome":"inactive"}
{"gene knocked down":"KIR3DL3","reagent":1,"total luciferase, z-score":-0.318,"outcome":"inactive"}
{"gene knocked down":"KIR3DL3","reagent":2,"total luciferase, z-score":1.13,"outcome":"inactive"}
{"gene knocked down":"KIR3DL3","reagent":3,"total luciferase, z-score":-0.523,"outcome":"inactive"}
{"gene knocked down":"LAIR1 (leukocyte associated immunoglobulin like receptor 1)","reagent":1,"total luciferase, z-score":-2.8,"outcome":"inactive"}
{"gene knocked down":"LAIR1 (leukocyte associated immunoglobulin like receptor 1)","reagent":2,"total luciferase, z-score":-0.306,"outcome":"inactive"}
{"gene knocked down":"LAIR1 (leukocyte associated immunoglobulin like receptor 1)","reagent":3,"total luciferase, z-score":-0.487,"outcome":"inactive"}
{"gene knocked down":"NICN1 (nicolin 1, tubulin polyglutamylase complex subunit)","reagent":1,"total luciferase, z-score":-0.361,"outcome":"inactive"}
{"gene knocked down":"NICN1 (nicolin 1, tubulin polyglutamylase complex subunit)","reagent":2,"total luciferase, z-score":-1.35,"outcome":"inactive"}
{"gene knocked down":"NICN1 (nicolin 1, tubulin polyglutamylase complex subunit)","reagent":3,"total luciferase, z-score":-1.17,"outcome":"inactive"}
